From the supplement of paper PMC11006884 come the findings set out here.

The chains behind the UniProt entries cited, without tags or fusion partners. Where a name states a change or a piece, a line headed by the entry shows the natural chain unless it says otherwise.
UniProt P52209: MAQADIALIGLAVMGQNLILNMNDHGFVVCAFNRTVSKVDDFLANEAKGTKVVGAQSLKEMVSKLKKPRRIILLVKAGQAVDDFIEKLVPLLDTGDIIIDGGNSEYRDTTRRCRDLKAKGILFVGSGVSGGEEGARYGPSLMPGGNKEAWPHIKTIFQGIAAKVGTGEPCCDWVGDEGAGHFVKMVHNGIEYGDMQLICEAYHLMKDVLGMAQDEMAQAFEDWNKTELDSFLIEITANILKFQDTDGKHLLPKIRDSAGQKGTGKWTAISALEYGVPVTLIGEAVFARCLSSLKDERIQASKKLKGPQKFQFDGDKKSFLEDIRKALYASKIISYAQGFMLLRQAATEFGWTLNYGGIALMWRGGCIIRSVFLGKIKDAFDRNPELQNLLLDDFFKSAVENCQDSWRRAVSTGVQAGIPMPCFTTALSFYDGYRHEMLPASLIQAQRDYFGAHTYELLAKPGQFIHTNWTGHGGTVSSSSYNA
UniProt P60228, whole entry, looked up: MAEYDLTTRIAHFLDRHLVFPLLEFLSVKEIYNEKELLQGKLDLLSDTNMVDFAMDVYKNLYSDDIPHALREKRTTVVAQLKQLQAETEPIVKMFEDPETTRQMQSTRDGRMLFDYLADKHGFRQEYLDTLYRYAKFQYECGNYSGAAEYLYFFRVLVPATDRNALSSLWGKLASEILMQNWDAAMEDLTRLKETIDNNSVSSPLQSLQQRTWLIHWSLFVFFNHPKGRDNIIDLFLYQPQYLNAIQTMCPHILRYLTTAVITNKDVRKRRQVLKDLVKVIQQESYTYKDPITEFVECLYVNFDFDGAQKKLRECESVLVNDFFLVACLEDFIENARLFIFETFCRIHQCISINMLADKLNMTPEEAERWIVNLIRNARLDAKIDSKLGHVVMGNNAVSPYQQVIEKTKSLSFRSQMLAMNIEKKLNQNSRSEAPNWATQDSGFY
UniProt P56192: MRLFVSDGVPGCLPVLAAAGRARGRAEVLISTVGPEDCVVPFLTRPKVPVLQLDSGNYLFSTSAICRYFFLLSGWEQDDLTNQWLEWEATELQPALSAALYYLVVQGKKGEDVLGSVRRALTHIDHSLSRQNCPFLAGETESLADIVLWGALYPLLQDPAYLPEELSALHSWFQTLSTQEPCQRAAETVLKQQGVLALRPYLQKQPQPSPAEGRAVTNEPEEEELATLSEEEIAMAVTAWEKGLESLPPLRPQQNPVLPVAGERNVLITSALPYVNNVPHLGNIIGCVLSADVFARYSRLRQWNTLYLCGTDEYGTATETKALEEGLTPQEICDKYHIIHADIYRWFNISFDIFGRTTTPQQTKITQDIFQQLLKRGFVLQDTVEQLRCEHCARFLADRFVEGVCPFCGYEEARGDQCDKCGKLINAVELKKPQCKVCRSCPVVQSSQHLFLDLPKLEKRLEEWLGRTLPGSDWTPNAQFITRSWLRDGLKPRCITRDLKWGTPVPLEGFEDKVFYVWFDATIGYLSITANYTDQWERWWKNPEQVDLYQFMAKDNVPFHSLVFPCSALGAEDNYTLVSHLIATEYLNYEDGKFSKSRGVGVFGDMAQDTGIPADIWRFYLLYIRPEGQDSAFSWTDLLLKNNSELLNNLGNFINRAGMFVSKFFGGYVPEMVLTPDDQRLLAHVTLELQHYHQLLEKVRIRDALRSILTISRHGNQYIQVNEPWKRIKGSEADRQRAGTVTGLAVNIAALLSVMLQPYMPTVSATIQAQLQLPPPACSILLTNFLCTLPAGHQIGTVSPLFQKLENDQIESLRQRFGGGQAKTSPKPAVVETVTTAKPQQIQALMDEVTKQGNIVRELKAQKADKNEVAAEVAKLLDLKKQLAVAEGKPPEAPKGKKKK
UniProt P52565: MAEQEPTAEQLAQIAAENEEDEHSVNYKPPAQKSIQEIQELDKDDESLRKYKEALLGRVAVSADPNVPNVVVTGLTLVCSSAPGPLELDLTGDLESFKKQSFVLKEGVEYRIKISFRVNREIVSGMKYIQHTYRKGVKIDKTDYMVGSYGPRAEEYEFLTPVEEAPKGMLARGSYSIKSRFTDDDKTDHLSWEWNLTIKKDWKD
UniProt P53701: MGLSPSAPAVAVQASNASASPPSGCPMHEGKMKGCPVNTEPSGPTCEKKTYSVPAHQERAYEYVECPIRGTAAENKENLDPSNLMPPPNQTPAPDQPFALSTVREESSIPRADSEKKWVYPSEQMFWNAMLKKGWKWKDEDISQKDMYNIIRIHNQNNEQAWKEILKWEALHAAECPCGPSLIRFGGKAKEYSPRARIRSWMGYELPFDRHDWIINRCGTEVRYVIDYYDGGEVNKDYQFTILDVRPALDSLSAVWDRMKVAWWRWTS
UniProt P55039: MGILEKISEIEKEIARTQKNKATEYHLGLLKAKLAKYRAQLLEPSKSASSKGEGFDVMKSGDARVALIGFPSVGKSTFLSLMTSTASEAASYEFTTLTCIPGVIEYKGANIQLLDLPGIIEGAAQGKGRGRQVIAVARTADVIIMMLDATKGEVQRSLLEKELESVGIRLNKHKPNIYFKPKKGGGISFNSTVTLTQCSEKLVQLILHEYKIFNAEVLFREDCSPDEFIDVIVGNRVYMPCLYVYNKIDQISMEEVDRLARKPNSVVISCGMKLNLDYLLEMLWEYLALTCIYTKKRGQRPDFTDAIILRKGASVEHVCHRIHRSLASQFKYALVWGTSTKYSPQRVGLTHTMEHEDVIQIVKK
UniProt P60842, whole entry, looked up: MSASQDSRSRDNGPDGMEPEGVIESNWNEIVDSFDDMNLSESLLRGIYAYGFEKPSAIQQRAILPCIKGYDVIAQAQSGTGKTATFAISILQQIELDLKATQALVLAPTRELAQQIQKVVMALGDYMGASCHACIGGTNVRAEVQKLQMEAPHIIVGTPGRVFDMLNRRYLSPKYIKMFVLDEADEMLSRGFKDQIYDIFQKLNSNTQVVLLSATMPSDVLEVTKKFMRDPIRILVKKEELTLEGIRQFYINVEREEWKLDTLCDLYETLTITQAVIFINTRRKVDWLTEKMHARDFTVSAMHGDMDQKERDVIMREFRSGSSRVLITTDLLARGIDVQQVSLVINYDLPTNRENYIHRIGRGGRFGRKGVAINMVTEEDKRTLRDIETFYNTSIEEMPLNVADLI
UniProt P52732: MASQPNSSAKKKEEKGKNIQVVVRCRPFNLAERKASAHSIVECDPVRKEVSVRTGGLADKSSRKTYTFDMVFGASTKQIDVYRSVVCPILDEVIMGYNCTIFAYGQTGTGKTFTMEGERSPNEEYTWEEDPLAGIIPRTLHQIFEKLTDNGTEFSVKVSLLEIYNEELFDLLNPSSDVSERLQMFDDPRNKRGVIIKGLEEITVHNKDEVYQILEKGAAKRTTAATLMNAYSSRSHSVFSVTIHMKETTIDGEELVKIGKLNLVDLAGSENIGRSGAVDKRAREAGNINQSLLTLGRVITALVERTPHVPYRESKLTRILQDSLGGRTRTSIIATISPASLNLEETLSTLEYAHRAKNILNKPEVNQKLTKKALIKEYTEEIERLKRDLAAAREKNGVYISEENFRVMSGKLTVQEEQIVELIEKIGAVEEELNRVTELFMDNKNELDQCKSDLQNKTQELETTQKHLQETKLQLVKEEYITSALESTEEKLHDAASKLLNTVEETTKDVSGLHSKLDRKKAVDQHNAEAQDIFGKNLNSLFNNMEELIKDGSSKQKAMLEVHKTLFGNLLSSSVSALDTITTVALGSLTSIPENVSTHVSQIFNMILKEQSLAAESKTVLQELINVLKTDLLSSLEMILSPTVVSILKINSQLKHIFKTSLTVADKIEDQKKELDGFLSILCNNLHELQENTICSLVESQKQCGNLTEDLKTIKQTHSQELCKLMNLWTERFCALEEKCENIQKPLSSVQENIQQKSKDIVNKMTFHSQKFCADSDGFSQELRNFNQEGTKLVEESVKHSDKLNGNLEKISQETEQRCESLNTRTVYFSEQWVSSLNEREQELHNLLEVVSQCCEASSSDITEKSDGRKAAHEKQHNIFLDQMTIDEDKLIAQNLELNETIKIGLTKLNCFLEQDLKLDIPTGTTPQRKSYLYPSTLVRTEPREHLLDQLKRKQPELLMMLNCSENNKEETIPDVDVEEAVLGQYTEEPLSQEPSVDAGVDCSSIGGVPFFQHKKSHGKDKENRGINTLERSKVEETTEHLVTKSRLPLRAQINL
UniProt P51858: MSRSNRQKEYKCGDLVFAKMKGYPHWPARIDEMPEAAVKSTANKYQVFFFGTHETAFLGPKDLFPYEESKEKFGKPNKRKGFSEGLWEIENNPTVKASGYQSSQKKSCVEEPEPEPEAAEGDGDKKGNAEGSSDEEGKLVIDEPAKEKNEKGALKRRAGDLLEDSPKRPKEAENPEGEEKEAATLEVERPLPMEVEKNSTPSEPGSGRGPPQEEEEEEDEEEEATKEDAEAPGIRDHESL
UniProt P52294, whole entry, looked up: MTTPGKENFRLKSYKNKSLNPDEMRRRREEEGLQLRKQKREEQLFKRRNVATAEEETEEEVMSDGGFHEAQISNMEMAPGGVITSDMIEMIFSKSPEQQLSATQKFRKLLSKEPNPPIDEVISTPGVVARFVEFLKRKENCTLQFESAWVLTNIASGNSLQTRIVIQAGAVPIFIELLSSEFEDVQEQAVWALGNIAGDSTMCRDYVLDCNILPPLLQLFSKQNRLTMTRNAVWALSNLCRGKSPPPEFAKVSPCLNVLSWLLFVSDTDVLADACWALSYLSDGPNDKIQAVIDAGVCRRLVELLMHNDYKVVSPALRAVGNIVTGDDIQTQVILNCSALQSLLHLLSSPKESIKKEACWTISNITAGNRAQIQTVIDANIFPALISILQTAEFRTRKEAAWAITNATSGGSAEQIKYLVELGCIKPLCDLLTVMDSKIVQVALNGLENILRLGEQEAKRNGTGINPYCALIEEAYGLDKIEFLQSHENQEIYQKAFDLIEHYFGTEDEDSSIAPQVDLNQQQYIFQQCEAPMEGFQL
UniProt P55265: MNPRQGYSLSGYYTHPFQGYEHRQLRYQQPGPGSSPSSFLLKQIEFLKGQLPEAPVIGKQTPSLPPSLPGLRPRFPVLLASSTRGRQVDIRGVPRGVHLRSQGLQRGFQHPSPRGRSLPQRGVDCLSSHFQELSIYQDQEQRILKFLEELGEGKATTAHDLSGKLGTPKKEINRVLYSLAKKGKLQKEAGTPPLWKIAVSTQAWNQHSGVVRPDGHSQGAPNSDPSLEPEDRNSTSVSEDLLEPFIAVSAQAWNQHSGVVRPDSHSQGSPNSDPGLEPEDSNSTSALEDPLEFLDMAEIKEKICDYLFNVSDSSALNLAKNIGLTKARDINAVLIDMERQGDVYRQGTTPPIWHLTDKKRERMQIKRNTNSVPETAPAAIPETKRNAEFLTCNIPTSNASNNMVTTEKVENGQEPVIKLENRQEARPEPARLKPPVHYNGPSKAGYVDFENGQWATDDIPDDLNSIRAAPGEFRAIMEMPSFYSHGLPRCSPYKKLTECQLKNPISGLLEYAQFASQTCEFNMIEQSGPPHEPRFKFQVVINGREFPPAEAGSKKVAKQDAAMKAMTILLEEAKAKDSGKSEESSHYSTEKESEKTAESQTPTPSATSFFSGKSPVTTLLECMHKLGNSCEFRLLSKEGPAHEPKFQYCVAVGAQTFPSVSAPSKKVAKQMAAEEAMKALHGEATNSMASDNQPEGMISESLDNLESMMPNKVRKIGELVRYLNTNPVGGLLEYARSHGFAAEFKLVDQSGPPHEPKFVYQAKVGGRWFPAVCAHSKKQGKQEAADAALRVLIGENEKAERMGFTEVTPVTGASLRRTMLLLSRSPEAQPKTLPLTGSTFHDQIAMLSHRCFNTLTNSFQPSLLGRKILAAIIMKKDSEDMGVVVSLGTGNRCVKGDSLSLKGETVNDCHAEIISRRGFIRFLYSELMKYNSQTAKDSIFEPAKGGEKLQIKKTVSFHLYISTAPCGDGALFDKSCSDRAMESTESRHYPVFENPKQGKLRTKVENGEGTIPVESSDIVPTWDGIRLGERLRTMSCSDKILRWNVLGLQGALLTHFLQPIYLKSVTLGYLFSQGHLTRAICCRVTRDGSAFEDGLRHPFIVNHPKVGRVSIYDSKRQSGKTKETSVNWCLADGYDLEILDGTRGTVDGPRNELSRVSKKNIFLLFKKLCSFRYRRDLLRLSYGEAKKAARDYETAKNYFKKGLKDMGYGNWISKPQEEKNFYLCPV
UniProt P55212: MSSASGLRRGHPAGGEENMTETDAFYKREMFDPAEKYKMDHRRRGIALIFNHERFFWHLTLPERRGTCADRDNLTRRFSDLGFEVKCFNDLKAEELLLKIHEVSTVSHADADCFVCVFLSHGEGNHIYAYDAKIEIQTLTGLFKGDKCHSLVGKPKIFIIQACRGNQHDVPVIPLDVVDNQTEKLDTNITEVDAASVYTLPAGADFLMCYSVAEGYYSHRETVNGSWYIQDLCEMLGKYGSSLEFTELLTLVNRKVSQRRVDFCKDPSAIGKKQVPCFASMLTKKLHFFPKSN
UniProt P61088: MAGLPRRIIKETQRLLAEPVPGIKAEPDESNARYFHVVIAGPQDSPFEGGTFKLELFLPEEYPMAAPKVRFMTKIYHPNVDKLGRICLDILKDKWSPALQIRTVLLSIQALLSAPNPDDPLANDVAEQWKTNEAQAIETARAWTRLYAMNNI

The list shows a part of the results, in another mix than the full data. The data scatter; read single values as rough.

Compound in the assay: COC(=O)/C=C/c1ccccc1 [methyl cinnamate]
In words: log2 ratio of iodoacetamide-alkyne labeling of the cysteine site, DMSO over compound (competition); higher = stronger covalent engagement of the cysteine by the compound, active = 1 or more. To be noted: 500 µM; treatment time 1 h; system: HEK293T cell lysate. The essentials:
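Reporter intensities give each cysteine's log2 competition ratio as the mean of control channels over the mean of compound channels. The samples were HEK293T lysate (2 mg/mL) given vehicle or electrophile (500 µM, 1 h, ambient temperature), then iodoacetamide alkyne (1 h), followed by click coupling to sCIP-TMT reagents, pooling, trypsin digestion overnight at 37 °C, streptavidin enrichment, acid elution, Orbitrap Eclipse LC-MS/MS with FAIMS and FragPipe quantification. Duplicate channels and three replicates were run, and cysteines quantified in only one replicate were discarded.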
With UniProt P62244_C30, the “log2 ratio of iodoacetamide-alkyne labeling” value (from here on “log2 ratio”) was inactive: 0.14.

For the target PGD C289 (UniProt P52209), the “log2 ratio” value was inactive: 0.183. The value for NUBP1 C277 (UniProt P53384) was inactive: 0.192. The value for UniProt P60228_C298 was inactive: -0.394; that for RARS C34 (UniProt P54136) was inactive: 0.313; that for MARS C12 (UniProt P56192) was inactive: 0.08. As for ARHGDIA C79 (UniProt P52565), the figure is inactive: -0.506; as for RPS3A C201 (UniProt P61247), inactive: 0.00362. In the case of UniProt P62241_C174, the “log2 ratio” value was inactive: 0.0337. The value for UniProt P60866_C70 was inactive: 0.213; that for UniProt P60763_C178 was inactive: 0.167; that for HCCS C66 (UniProt P53701) was inactive: 0.167. As for KPNA2 C133 (UniProt P52292), the figure is inactive: 0.141; as for DRG2 C223 (UniProt P55039), inactive: 0.32. The value for UniProt P60842_C66 was inactive: 0.205. For the target PLK1 C372 (UniProt P53350), the “log2 ratio” value is inactive: 0.0821. The value for NAP1L1 C132 (UniProt P55209) was inactive: 0.0976. As for KIF11 C773 (UniProt P52732), the figure is inactive: 0.356; as for HDGF C108 (UniProt P51858), inactive: 0.255.

On to HNRNPA3 C64 (UniProt P51991), for which the “log2 ratio” value is inactive: 0.277. The value for KPNA1 C337 (UniProt P52294) was inactive: 0.112; that for HADHB C435 (UniProt P55084) was inactive: 0.126; that for PLK1 C405 (UniProt P53350) was inactive: 0.764. As for PSMD4 C9 (UniProt P55036), the figure is inactive: 0.0318. The value for NPEPPS C887 (UniProt P55786) was inactive: 0.196. UniProt P55072_C535: the “log2 ratio” value was inactive: -0.0182. The value for EIF3B C384 (UniProt P55884) was inactive: -0.106; that for ADAR C519 (UniProt P55265) was inactive: -0.148. As to CASP6 C68 (UniProt P55212), the “log2 ratio” value is inactive: 0.258. As for UniProt P61088_C87, the figure is inactive: -0.0475; as for THOP1 C7 (UniProt P52888), inactive: 0.552; as for HNRNPA3 C85 (UniProt P51991), inactive: -0.00216. The value for NAP1L1 C258 (UniProt P55209) was inactive: 0.0297; that for KIF11 C450 (UniProt P52732) was inactive: 0.178. As for KPNA1 C210 (UniProt P52294), the figure is inactive: -0.0105. In the case of ADAR C649 (UniProt P55265), the “log2 ratio” value was inactive: 0.091. Regarding CORO7 C505 (UniProt P57737), the “log2 ratio” value is inactive: 0.269.
